Data on 1 compound can be found in patent US20180200257A1, “METHODS FOR THE TREATMENT OF INFLAMMATORY DISORDERS” (Galapagos NV, priority 2015, published 2018).

This assay concerns subjects with moderately to severely active RA who have an inadequate response to methotrexate (MTX). As to the kind of experiment: Study 1 (add-on to MTX) - Subject VAS mean changes (ACR patient assessment). The format is in vivo, human. As to conditions: 24 weeks results. On the procedure: The scale is 100 mm, the decrease in mm is shown. […] (dotted line), 100 mg q.d. (dashed line) or 200 mg q.d. (dark solid line). […] The results shown in the figures are calculated using Last-Observation-Carried-Forward (LOCF), which handles missing data by assigning the value recorded at the patient's last visit to all subsequent missed visits.
Double-blind, placebo-controlled add on study in subjects with moderately to severely active RA who have an inadequate response to methotrexate (MTX) (oral or parenteral).
595 subjects randomized to one of 6 dose regimens of Compound 1 (dosed as [Compound 1:HCl:3H2O]) (3 dose levels administered either once or twice daily) or placebo on top of each subject's stable dose of MTX.
Compound 1 (dosed as [Compound 1:HCl:3H2O]) is dosed for twelve weeks once daily (q.d.) (50 mg, 100 mg or 200 mg) or twice daily (b.i.d.) (25 mg, 50 mg or 100 mg); or placebo.
At Week 12, the subjects on placebo who have not achieved 20% improvement in swollen joint count (SJC66) and tender joint count (TJC68) are re-randomized automatically to receive Compound 1 (dosed as a [Compound 1:HCl:3H2O]) either at 100 mg q.d. or 50 mg b.i.d. doses in a blinded fashion; subjects on 50 mg q.d. who have not achieved 20% improvement in SJC66 and TJC68 will be assigned to 100 mg q.d. and subjects on 25 mg b.i.d. that have not achieved a 20% improvement in SJC66 and TJC68 will be assigned to 50 mg b.i.d. Subjects who switch treatment at week 12 are handled as if they discontinued at week 12 for the purpose of statistical analysis, whereas subjects in the other groups will maintain their randomized treatment until Week 24.
Firstly, the patient is asked to make a vertical mark on a 100 mm Visual Analog Scale (VAS) corresponding to their general health or global disease activity on a touch screen to measure the VAS value, which is used in the formula below.
The American College of Rheumatology (ACR) composite score, which evaluates clinical improvement relative to an initial assessment, is a commonly accepted efficacy end point for clinical trials in patients with rheumatoid arthritis. The ACR score correspond to a percentage improvement in pre-set parameters, and therefore measures the evolution of the disease in a patient. For example, ACR20 denotes at least 20% improvement in tender and swollen joint counts and in three of the following end points: global assessment by the patient, global assessment by the doctor, C reactive protein (CRP), patient's pain Visual Analogue Scale and Health Assessment Questionnaire Score. The number of swollen joints, ESR and CRP correlate with radiographic progression of joint damage, whereas tender joint counts, as well as global assessments by doctors and patients, and patients' reports of pain, are sensitive to change in clinical outcomes. Physical function, as assessed by the Health Assessment Questionnaire Score, is a potent predictor of the risk of disability in rheumatoid arthritis (Felson and American College of Rheumatology Committee to Reevaluate Improvement Criteria, 2007; Felson et al., 1993).

Further values from the same series stand in other lists.

Turning to `O=C(Nc1nc2cccc(-c3ccc(CN4CCS(=O)(=O)CC4)cc3)n2n1)C1CC1` [Compound 1, cyclopropanecarboxylic acid {5-[4-(1,1-dioxo-thiomorpholin-4-ylmethyl)-phenyl]-[1,2,4]triazolo[1,5-a]pyridin-2-yl}-amide], the “Subject VAS mean changes (ACR patient assessment)” value reads like this: (50 mg q.d., week 1, LOCF) −11.2; (100 mg q.d., week 1, LOCF) −12.9; (200 mg q.d., week 1, LOCF) −16.7; (2 × 25 mg b.i.d., week 1, LOCF) −8.2; (2 × 50 mg b.i.d., week 0, LOCF) 0.0; (2 × 50 mg b.i.d., week 1, LOCF) −8.7. The “Subject VAS mean changes (ACR patient assessment)” value by setting is: (2 × 100 mg b.i.d., week 0, LOCF) 0.0; (2 × 100 mg b.i.d., week 1, LOCF) −20.
